Assay results taken from patent US11078157B1, “Compound embodiments that release H2S by reaction with a reactive compound and methods of making and using the same” (University of Oregon, priority 2018, dated 2021).
Entries after “also recorded” stand apart in the source; their conditions may differ.

Experiment: H2S release via methylene blue assay (MBA)
Assay type: physicochemical
Details: 25 μM compound, cysteine 500 μM (20 equiv.)
Method: H2S Detection Materials and Methods—Phosphate buffered saline (PBS) tablets (1×, CalBioChem) were used to prepare buffered solutions (140 mM NaCl, 3 mM KCl, 10 mM phosphate, pH 7.4) in deionized water. Buffer solutions were sparged with N2 to remove dissolved oxygen and stored in an N2-filled glovebox. Donor stock solutions (in DMSO) were prepared inside an N2-filled glovebox and stored at −25° C. until immediately before use. Trigger stock solutions (in PBS) were freshly prepared in an N2-filled glovebox immediately before use.
General Procedure for Measuring H2S Release via Methylene Blue Assay (MBA)—Scintillation vials containing 20 mL of PBS were prepared in an N2-filled glovebox. […] Absorbance values at 670 nm were measured 1 hour after addition of reaction aliquot. […]
MBA Calibration Curve—Solutions containing 0.5 mL of the methylene blue cocktail and 0.5 mL PBS containing 500 μM cysteine were freshly prepared in disposable cuvettes (1.5 mL). […] Absorbance values at 670 nm were measured after 1 hour.
In this example, the released H2S was measured and quantified using the methylene blue assay for H2S. […] After incubation for 1 hour, the absorbance at 670 nm is measured and converted to a H2S concentration by using the H2S calibration curve. To assess the H2S-releasing efficiency from the compound embodiments, a methylene blue calibration curve was used to quantify the H2S release (FIG. 2).

## O=C(Nc1ccccc1)c1ccccc1 [N-phenylbenzamide, reference compound]
  H2S release in the presence of cysteine: lack of H2S release; also recorded: failed to release H2S
